From publication PMC9657364
Results are given in words; binding and its absence hold for the method and conditions named. Binding seen in cells or lysates may run through a third protein. Some binding calls cover weakened binding; strength is not graded here.

Amino acid sequences for entries named in this document (tags omitted).
UniProt Q14258: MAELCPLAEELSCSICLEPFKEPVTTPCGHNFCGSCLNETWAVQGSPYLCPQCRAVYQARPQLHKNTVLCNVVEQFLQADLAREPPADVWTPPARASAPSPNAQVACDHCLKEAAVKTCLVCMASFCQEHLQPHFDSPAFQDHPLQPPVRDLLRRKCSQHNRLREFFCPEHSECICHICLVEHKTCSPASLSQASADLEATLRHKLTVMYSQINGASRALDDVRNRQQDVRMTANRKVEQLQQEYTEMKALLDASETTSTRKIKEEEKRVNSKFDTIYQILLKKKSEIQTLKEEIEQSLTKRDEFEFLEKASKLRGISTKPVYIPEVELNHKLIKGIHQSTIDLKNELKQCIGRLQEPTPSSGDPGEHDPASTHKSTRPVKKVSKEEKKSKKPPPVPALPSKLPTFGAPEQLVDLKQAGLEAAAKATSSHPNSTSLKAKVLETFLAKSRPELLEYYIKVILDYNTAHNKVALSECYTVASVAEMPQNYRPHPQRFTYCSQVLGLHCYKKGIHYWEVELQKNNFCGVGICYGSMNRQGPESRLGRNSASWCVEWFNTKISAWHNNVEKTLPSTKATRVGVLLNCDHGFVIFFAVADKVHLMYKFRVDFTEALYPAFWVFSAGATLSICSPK

Experiments:
[1] = target: T1, Receptor interacting protein serine/threonine kinase 4 (RIPK4) (human (endogenous in BGC-823 and AGS)) (UniProt P57078); experiment: co-IP; endogenous proteins, co-immunoprecipitation with anti-RIPK4 or anti-TRIM25 antibodies in BGC-823 cells; also in si-NC or si-1 (LINC01537 knock-down) BGC-823 cells
T1 sequence: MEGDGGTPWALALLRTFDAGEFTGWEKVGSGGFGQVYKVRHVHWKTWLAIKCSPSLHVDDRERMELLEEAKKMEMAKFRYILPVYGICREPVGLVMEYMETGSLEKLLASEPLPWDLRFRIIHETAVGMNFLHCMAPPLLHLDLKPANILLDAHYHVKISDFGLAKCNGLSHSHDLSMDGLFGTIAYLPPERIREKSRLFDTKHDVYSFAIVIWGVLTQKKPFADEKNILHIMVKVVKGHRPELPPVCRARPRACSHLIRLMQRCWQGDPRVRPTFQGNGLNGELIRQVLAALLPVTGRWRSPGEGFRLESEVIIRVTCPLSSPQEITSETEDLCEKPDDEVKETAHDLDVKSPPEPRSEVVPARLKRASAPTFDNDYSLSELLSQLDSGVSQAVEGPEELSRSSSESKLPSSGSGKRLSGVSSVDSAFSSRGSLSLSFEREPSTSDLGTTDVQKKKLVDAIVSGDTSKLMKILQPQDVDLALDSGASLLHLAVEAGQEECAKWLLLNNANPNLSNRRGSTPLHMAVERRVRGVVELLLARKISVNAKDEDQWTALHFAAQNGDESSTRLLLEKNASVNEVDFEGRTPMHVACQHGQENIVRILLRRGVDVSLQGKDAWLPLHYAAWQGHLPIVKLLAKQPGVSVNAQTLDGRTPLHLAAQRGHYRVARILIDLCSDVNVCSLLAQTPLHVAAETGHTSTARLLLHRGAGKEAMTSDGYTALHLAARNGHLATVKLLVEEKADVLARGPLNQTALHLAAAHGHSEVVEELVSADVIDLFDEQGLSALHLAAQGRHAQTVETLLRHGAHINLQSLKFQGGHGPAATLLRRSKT

[2] = target: TRIM25 (human (endogenous in BGC-823 and AGS)) (UniProt Q14258); experiment: as above

With TRIM25 (from UniProt Q14258 1-630) the binding [1] was “binds”.

B1: Receptor interacting protein serine/threonine kinase 4 (RIPK4) (protein, UniProt P57078 1-832)
chain: T1 sequence
B1 was tested, and the binding [2] was “binds”.
